PubChem BioAssay AID743121 – NCATS – 2013

- Screen: 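Genes whose silencing strengthens cell killing by camptothecin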 (primary screen)
- System: MDA-MB-231 cells, a human breast cancer line
- Reagents: single siRNA against human genes, 20 nM siRNA (0.8 pmol per well)
- Time to read-out: 120 h (drug added 48 h after transfection, read 72 h later)
- Treatment: camptothecin 20 nM (about EC30) for 72 h; vehicle 0.1% DMSO in parallel plates
- Measurement: 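CellTiter-Glo ATP signal, scaled to control siRNA as percent viability; sensitisation given as log2 of untreated divided by camptothecin-treated viability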
- Direction: log2 vehicle/camptothecin viability: higher = stronger sensitisation to camptothecin; viability with camptothecin: higher = more viable cells
- Rule for the call: 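Active genes have an RSA gene-level p-value below 0.001, computed from the ratios of their separate siRNAs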
Here is an unselected part of about 26,000 reagents. In the full data, 167 (0.63%) got an active call. 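Calls are per gene from RSA p-values that are not deposited; an individual active-marked siRNA can sensitise only weakly.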 Reagents against one gene are numbered here. Further read-outs or replicates are left out here.

Gene | siRNA no. | log2 vehicle/camptothecin viability | viability with camptothecin (% of control) | activity call
PHF21B | 1 | -0.46 | 89.2 | inactive
PHF21B | 2 | -0.291 | 53.3 | inactive
PHF21B | 3 | 0.121 | 20.4 | inactive
PHF21B | 4 | -0.838 | 77.6 | inactive
PNRC2 | 1 | 0.000233 | 101 | inactive
PNRC2 | 2 | -0.388 | 106 | inactive
PNRC2 | 3 | -0.326 | 95.5 | inactive
PNRC2 | 4 | -0.0812 | 106 | inactive
ZIC3 | 1 | -0.125 | 55.8 | inactive
ZIC3 | 2 | -0.307 | 114 | inactive
ZIC3 | 3 | -0.261 | 72.2 | inactive
ZIC3 | 4 | 0.14 | 71 | inactive
SCYL3 | 1 | -0.651 | 61.9 | inactive
SCYL3 | 2 | -0.514 | 65.7 | inactive
SCYL3 | 3 | -0.392 | 87 | inactive
SCYL3 | 4 | -0.42 | 96.2 | inactive
SCYL3 | 5 | -0.269 | 118 | inactive
PTK2B | 1 | 0.269 | 72.7 | inactive
PTK2B | 2 | -0.376 | 123 | inactive
PTK2B | 3 | -0.312 | 104 | inactive
PTK2B | 4 | -0.514 | 70.7 | inactive
KCND3 | 1 | 0.0906 | 75.4 | inactive
KCND3 | 2 | -0.606 | 85.9 | inactive
KCND3 | 3 | -0.168 | 50.9 | inactive
KCND3 | 4 | -0.171 | 96.1 | inactive
RAB36 | 1 | -0.5 | 70.1 | inactive
RAB36 | 2 | -0.112 | 74.9 | inactive
RAB36 | 3 | 0.331 | 54.2 | inactive
RAB36 | 4 | 0.29 | 68.2 | inactive
DHRSX | 1 | 0.0423 | 86.3 | inactive
DHRSX | 2 | -0.231 | 95.3 | inactive
DHRSX | 3 | -0.126 | 75.9 | inactive
DHRSX | 4 | -0.437 | 88.2 | inactive
ATP13A4 | 1 | -0.152 | 71.3 | inactive
ATP13A4 | 2 | 0.0391 | 45.5 | inactive
ATP13A4 | 3 | 0.121 | 100 | inactive
LDLRAP1 | 1 | 0.51 | 65.9 | inactive
LDLRAP1 | 2 | 0.305 | 53 | inactive
LDLRAP1 | 3 | -0.226 | 105 | inactive
LDLRAP1 | 4 | -0.114 | 78.8 | inactive
DLD | 1 | -0.214 | 117 | inactive
DLD | 2 | -0.427 | 69.4 | inactive
DLD | 3 | -0.411 | 77.2 | inactive
DLD | 4 | -0.455 | 98.7 | inactive
ZNHIT3 | 1 | -0.0152 | 83.7 | inactive
ZNHIT3 | 2 | 0.508 | 4.48 | inactive
ZNHIT3 | 3 | -0.75 | 73 | inactive
ATP6V1B1 | 1 | -0.0634 | 66.7 | inactive
ATP6V1B1 | 2 | 0.0589 | 23.7 | inactive
ATP6V1B1 | 3 | -0.0509 | 75.7 | inactive
ATP6V1B1 | 4 | 0.295 | 52.2 | inactive
BCAP31 | 1 | -0.213 | 77.1 | inactive
BCAP31 | 2 | -0.485 | 75.3 | inactive
BCAP31 | 3 | -0.291 | 68 | inactive
BCAP31 | 4 | -0.0392 | 72.6 | inactive
CNGA3 | 1 | 0.331 | 17.9 | inactive
CNGA3 | 2 | -0.276 | 52.4 | inactive
CNGA3 | 3 | -0.446 | 76.8 | inactive
GRIA3 | 1 | -0.251 | 74.5 | inactive
GRIA3 | 2 | 0.0987 | 109 | inactive
GRIA3 | 3 | 0.0475 | 62.6 | inactive
GRIA3 | 4 | 0.321 | 39.6 | inactive
PLA2G2F | 1 | -0.387 | 77.1 | inactive
PLA2G2F | 2 | -0.148 | 52.8 | inactive
PLA2G2F | 3 | -0.313 | 120 | inactive
PLA2G2F | 4 | 0.905 | 29.4 | inactive
ERCC1 | 1 | 0.0476 | 27 | inactive
ERCC1 | 2 | -0.239 | 108 | inactive
ERCC1 | 3 | -0.0689 | 104 | inactive
ERCC1 | 4 | 0.492 | 49.3 | inactive
